Consider one molecule from publication PMC8517123, “Functional Interaction Between Caveolin 1 and LRRC8-Mediated Volume-Regulated Anion Channel” (Frontiers in Physiology, 2021).

Chains of the proteins cited; added tags and fusions are not shown.
UniProt Q8IWT6: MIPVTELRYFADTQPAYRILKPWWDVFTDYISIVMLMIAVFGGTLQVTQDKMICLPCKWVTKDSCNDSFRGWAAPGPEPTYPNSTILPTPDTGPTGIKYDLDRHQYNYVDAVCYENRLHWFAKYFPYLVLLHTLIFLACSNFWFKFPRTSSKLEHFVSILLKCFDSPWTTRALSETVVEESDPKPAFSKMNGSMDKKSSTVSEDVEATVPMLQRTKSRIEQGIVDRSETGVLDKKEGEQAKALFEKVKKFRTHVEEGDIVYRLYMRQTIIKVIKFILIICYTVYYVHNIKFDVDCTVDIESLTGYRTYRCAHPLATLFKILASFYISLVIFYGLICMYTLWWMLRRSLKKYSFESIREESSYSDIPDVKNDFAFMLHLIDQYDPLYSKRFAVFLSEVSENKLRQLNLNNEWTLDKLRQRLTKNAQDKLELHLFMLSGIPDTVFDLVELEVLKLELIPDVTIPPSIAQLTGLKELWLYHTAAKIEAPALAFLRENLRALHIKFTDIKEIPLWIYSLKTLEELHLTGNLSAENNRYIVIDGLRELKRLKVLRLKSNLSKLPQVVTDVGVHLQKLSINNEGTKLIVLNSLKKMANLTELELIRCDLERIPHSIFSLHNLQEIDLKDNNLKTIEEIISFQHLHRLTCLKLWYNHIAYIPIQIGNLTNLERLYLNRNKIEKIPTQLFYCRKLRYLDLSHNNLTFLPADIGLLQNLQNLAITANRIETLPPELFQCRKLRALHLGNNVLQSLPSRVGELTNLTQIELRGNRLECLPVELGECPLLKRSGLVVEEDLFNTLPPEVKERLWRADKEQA

In this assay the target is Leucine-rich repeat-containing 8A (human (endogenous in HEK 293)) (UniProt Q8IWT6). The assay can be described thus: co-IP; endogenous proteins; HEK 293 cells exposed to isotonic (300 mOsm/Kg) or hypotonic (255 mOsm/Kg) solution for 7 min at 37°C; lysis in 1% Triton X-100; 100-500 μg protein with 2-4 μg anti-Cav1 or anti-LRRC8A antibody at 4°C overnight, protein A sepharose; western blot. On the technique in general: A western blot detects proteins with antibodies after separation by electrophoresis.

Results are given in words; binding and its absence hold for the method and conditions named. In cells and extracts the contact can be indirect. Some results given as binding are weak or reduced against the parent protein; the word gives no strength.

B1: Caveolin 1 (natural protein, human (endogenous in HEK 293), UniProt Q03135 1-178, looked up)
chain: MSGGKYVDSEGHLYTVPIREQGNIYKPNNKAMADELSEKQVYDAHTKEIDLVNRDPKHLNDDVVKIDFEDVIAEPEGTHSFDGIWKASFTTFTVTKYWFYRLLSALFGIPMALIWGIYFAILSFLHIWAVVPCIKSFLIEIQCISRVYSIYVHTVCDPLFEAVGKIFSNVRINLQKEI
notes: Caveolin 1, endogenous in HEK 293 cells; also called Cav1; source: endogenous, HEK 293 lysate (1% Triton X-100)
With B1, the binding result was “binds”.
